Whole data set: some 33,000 sequences, median “E-score (-0.5 to 0.5)” near -8e-05, cut for the highest 2% near 0.23. This is one part of the list.
The sequences below were run against T1, Nrg2 (UniProt P38082) (assay: PBM E-score (8-mer binding enrichment) (E-score (-0.5 to 0.5)); higher = stronger / more preferred TF binding). Conditions: protein concentration: 100 nM; construct: GST-full length.
T1 sequence: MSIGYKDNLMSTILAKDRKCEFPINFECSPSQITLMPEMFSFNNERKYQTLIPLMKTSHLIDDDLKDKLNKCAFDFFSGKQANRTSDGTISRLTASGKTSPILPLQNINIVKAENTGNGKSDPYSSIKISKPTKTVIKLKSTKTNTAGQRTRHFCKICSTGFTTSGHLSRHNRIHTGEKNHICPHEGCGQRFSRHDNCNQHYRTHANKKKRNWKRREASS
Summary of the method: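 Universal all-10-mer Agilent arrays, fresh or stripped once, were converted to double-stranded form by primer extension. GST-tagged yeast transcription factors from PURExpress in vitro transcription/translation, full-length or DNA-binding domain only, were applied at about 100-200 nM and detected with fluorescent anti-GST. After masliner normalisation, the Universal PBM Analysis Suite scored each ungapped eight-base word together with its reverse complement by E-score.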

Row | Sequence | PBM E-score
1 | CAACTGAA | 0.0416
2 | ATGGGGCA | 0.0454
3 | AGTATTAA | 0.219
4 | CTCGCAAG | 0.0228
5 | GCCCAAGC | 0.106
6 | CACGGGAC | 0.14
7 | AATGCGAC | 0.0256
8 | AGTAGCGC | 0.126
9 | GCTTGGAC | -0.206
10 | GGTCGCCA | -0.142
11 | CTAAATTA | 0.127
12 | GCAGCCGC | -0.0337
13 | AAAACTTG | 0.0487
14 | CGGGCCAC | -0.0893
15 | CCATCCTA | 0.0372
16 | ACTAGTGA | -0.167
17 | ATTAACCC | 0.0948
18 | TAGAATCA | -0.0142
19 | CTCCCTTA | -0.202
20 | CCCATGTC | -0.0113
21 | AAGGTGCT | 0.0859
22 | CCCAATGA | -0.0631
23 | TCGAAAGA | 0.163
24 | GACTAGGC | -0.188
25 | CTAAGCAC | 0.0598

Row | Sequence | PBM E-score
26 | GGTATGGA | -0.135
27 | AACAACCA | 0.178
28 | CTCCATCC | -0.22
29 | CATCACGG | -0.023
30 | ACGCGTAG | 0.116
31 | GGATCTAC | -0.0823
32 | ATACAAGA | -0.0492
33 | CGATGTAA | 0.0345
34 | AACTGACC | -0.0188
35 | AGTCCCCG | -0.0464
36 | AGTGAGAT | 0.0026
37 | AATTGATC | 0.0837
38 | CATAAGGG | 0.19
39 | CCGCTGGC | -0.181
40 | GAAACACC | 0.0146
41 | AGCCTATA | 0.0899
42 | GCCCACTA | -0.0031
43 | AGGGTCGG | 0.0394
44 | CGGGTATA | -0.0142
45 | AGAGCACT | 0.00486
46 | TATACCCA | -0.0845
47 | ATGCGTAA | 0.03
48 | CCCTTGCG | -0.0569
49 | AGTGTATC | 0.204
50 | CGCAAGTC | -0.129

Row | Sequence | PBM E-score
51 | AGAGGCGG | -0.0539
52 | CTACCCGA | -0.164
53 | ATGACCGA | -0.0358
54 | GGTACCAA | 0.0728
55 | ATTTTCTA | -0.0141
56 | AAAAGTTC | 0.103
57 | CGGGCACC | -0.213
58 | AAACTCTG | 0.102
59 | CCCTAGGC | -0.111
60 | GGACCTTA | -0.0226
61 | CGTACTAG | 0.00346
62 | TAGTGAAA | -0.0329
63 | CACTGTCC | -0.0235
64 | GTACTTTA | 0.0371
65 | CCCAGCCG | -0.265
66 | CTCTCCGC | -0.0768
67 | CATTTGAA | 0.0105
68 | AACTGATA | 0.107
69 | CTGCAACC | -0.0699
70 | CGTGCTGC | -0.153
71 | GTTAGTTA | 0.0784
72 | AATAGATG | 0.148
73 | ACACTCGA | 0.094
74 | GCCGAGCC | 0.0583
75 | AGGTAGAA | 0.0985

Row | Sequence | PBM E-score
76 | AAAAGGGC | 0.12
77 | CGAGTTGA | 0.0599
78 | GCGCATCA | 0.0788
79 | GCACGGAA | 0.0823
80 | GGGACTAA | 0.0455
81 | AAAGGTGC | -0.0687
82 | AGCTGCTC | 0.0695
83 | ATCGTACC | -0.146
84 | AAGTCCAA | 0.112
85 | CAGCTTAC | -0.0326
86 | GGTAGGCA | -0.199
87 | AATTTCCA | 0.0794
88 | CACGCAAA | -0.0804
89 | AAGCGACC | 0.106
90 | TACAGGGA | 0.127
91 | CGTCGGAC | -0.212
92 | AGAACTGG | 0.0995
93 | GGGGGCTA | -0.319
94 | AACGACCA | -0.127
95 | AATACTGA | 0.00413
96 | AATGGCAT | 0.26
97 | ATGCTTCA | -0.0393
98 | GGAGGACA | -0.0977
99 | GGACCAGA | -0.0813
100 | CTCCACCA | -0.187

3 entries from above, tab-delimited:
Row	Sequence	PBM E-score
89	AAGCGACC	0.106
90	TACAGGGA	0.127
91	CGTCGGAC	-0.212

The list goes on:

Row | Sequence | PBM E-score
101 | GGTCTAAA | 0.0765
102 | ACATACGG | -0.154
103 | TAAGACCA | -0.0131
104 | CGAGCTGC | 0.12
105 | ACTTTCTA | 0.0942
106 | GAAACAAC | 0.0259
107 | CACGAGCG | -0.125
108 | GGACCCAC | 0.0687
109 | GACAAAGA | 0.0907
110 | GGCACAAA | 0.0328
111 | CAGTGTAA | 0.155
112 | CACTCCTC | -0.095
113 | AGCTCCGG | -0.134
114 | CTACGACC | -0.0715
115 | CCGGTCTA | -0.336
116 | AACCATTA | 0.11
117 | AGGAGCTC | -0.235
118 | CAGGTCTA | -0.0487
119 | AGACCATC | 0.0238
120 | GAGGATGA | -0.0182
121 | ACGGAAGA | -0.0304
122 | ATATTATA | 0.0282
123 | ATACACCG | -0.0841
124 | AAGCGGCC | -0.185
125 | CGGCCTGA | -0.17

Given with each value named: part of the list above
ACGGAAGA
  PBM E-score = -0.0304
ATACACCG
  PBM E-score = -0.0841
CGGCCTGA
  PBM E-score = -0.17

The list continues:

Row | Sequence | PBM E-score
126 | CCGTACCG | -0.293
127 | ATTTAGAA | 0.0479
128 | CTGGTCAA | 0.0409
129 | CTAGACCA | -0.131
130 | AAGTCTCA | -0.0124
131 | AACGCATC | -0.131
132 | CTAATGAA | 0.149
133 | AAAGATAG | -0.188
134 | AGTTAAGC | 0.029
135 | ACTAACAC | 0.062
136 | CGCGAAAA | 0.193
137 | CTTTTGAA | -0.0196
138 | CCTAATCG | 0.16
139 | CTTGGAGA | 0.00437
140 | ATAATACG | 0.18
141 | CACTCACG | 0.0689
142 | ACATACTG | 0.0364
143 | CAGGCCCG | -0.209
144 | AACGGAAA | 0.13
145 | CGGTGCTC | 0.0363
146 | CTTCTCCC | -0.189
147 | AGTCTCGA | -0.131
148 | GTCCAGCA | -0.101
149 | CTGATACC | 0.00659
150 | TCGCGTAA | 0.143

Row | Sequence | PBM E-score
151 | CGGCGCTC | -0.0921
152 | GACTCATA | -0.0851
153 | AGAAATCG | 0.0626
154 | GTACTGAC | -0.0272
155 | ACATACCT | -0.111
156 | GCGATTCC | 0.169
157 | CTTACAAG | -0.213
158 | AAATTTGA | 0.0547
159 | CCCCGTTA | -0.05
160 | CAGCCCAG | -0.181
161 | AGGAGGTC | -0.313
162 | AACGCTCT | -0.26
163 | AACTACGG | -0.043
164 | CGATCTTC | 0.0437
165 | AGATGGTC | -0.0423
166 | TATTCCCA | 0.0218
167 | CAGAGTCA | -0.132
168 | GGCCCTAA | 0.138
169 | CGGATCCG | -0.035
170 | TATAGGGA | -0.0294
171 | GCGGGTCA | 0.138
172 | AGCCGTTA | -0.0174
